Among the data in PubChem BioAssay AID2685 (National Center for Advancing Translational Sciences (NCATS), 2010) are cell number change and AC50 values, retold here.

The nature of this test: qHTS Assay for Lipid Storage Modulators in Drosophila S3 Cells.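 As to cell number change: cells counted by Cell Tracker Red CMTPX staining in the red channel.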 Particulars: BODIPY lipid droplet fluorescence, 18-24 h; for cell number change: measured here: cell count max response, cells fed with added oleic acid. The method in brief:
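Drosophila S3 cells loaded with oleic acid (400 uM, as added) and compounds at several concentrations; lipid droplets imaged by 488-nm laser-scanning cytometry, 500–530 nm intensity and object ratio to cell channel. Percent activity normalized to 20 uM Triacsin C.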

The mark [1] stands for this setting: measured here: lipid fluorescence (Fed channel) AC50, cells fed with added oleic acid.
Setting [2] is: measured here: cell number channel AC50, cells fed with added oleic acid.

SMILES strings stand for the structures. The list shows a part of the results. These are further read-outs of the screen, such as a control signal, another cell line or another target. No call is given for them. Compounds called inactive in the main read-out are mostly missing here. The note in brackets gives the kind of curve behind each potency; many fits are weak.

With `CS(=O)(=O)N1CCN(c2ccc([N+](=O)[O-])cc2C(F)(F)F)CC1`, the cell number change is 22.6%. As to `COc1ccccc1NC(=O)C(C)N1CCN(C/C=C/c2ccccc2)CC1` (configuration not stated), the cell number change was -18.3%. For `O=C(COc1ccc(-n2cnnn2)cc1)NC(=O)NCc1ccccc1`, the cell number change was found to be 5.45%. Also, under setting [1], the AC50 was 2.31 µM [rising, partial curve]. As to `Nc1ccc(S(=O)(=O)Nc2nc3ccccc3o2)cc1`, the cell number change was 8.5%. In addition, the half-maximal activity concentration (AC50) under setting [1] is 16.4 µM [rising, partial curve, poor fit]. For the compound `CCOC(=O)C1CCCN(c2c(N3CCC(N4CCCCC4)CC3)c(=O)c2=O)C1` (configuration not stated), the cell number change amounted to 12.9%. Also, the AC50 under setting [1] was 29.1 µM [rising, partial curve, poor fit]. For the compound `Cc1ccc(NC(=O)CCC(=O)NNC(=O)Cc2ccccc2)cc1C`, the cell number change was 30.2%. Under setting [2], the AC50 was 29.1 µM [rising, single point]. Turning to `Cc1ccc(S(=O)(=O)N2CCCCC2C(=O)N2CCN(c3ccccc3F)CC2)cc1` (configuration not stated), the cell number change was -4.28%. The AC50 under setting [1] was 6.51 µM [rising, single point]. `Cc1cccc(NC(=O)Nc2cnccn2)c1`: the cell number change is 9.2%. For the same compound, under setting [1], the half-maximal activity concentration (AC50) was 6.51 µM [rising, single point].

Regarding `O=C(Oc1ccc(-c2csnn2)cc1)c1cccs1`, the cell number change was -34.4%. In addition, under setting [2], the AC50 was 18.4 µM [falling, single point]. For the same compound, under setting [1], the AC50 was 8.2 µM [falling, partial curve]. Take `Cc1cc(-c2n[nH]c(=S)n2/N=C/c2ccc(Cl)c([N+](=O)[O-])c2)n[nH]1`: the cell number change was found to be 6.58%. Further, the AC50 under setting [1] is 29.1 µM [rising, single point]. As for `CCCCCCCC1=CC2=CC(=O)C(C)(OC(C)=O)C(=O)C2=CN1CCc1ccccc1` (configuration not stated), the cell number change turned out to be 20.5%. For the same compound, the half-maximal activity concentration (AC50) under setting [1] was 16.4 µM [rising, single point]. Turning to `COc1ccc(OC)c(CCNC(=O)c2nn(C)c3c2CS(=O)(=O)c2ccccc2-3)c1`, the cell number change is -6.93%. For the same compound, the AC50 under setting [1] is 29.1 µM [falling, single point]. As for `O=C(CSc1ccc(Cl)cc1)NC(=O)NC1CCCC1`, the cell number change was 195%. Besides, the AC50 under setting [2] is 29.1 µM [rising, partial curve]. Also, the AC50 under setting [1] was 18.4 µM [rising, partial curve]. Turning to `COc1ccc(C2NCCC3(O)CCCCC23)c(OC)c1OC` (configuration not stated), the cell number change turned out to be 8.14%. Besides, under setting [1], the AC50 was 23.1 µM [falling, single point].

On to `COc1ccc(NC2CCCN(C(=O)c3ccc(OC)cc3OC)C2)cc1` (configuration not stated), for which the cell number change is 4.95%. In addition, the AC50 under setting [1] was 0.651 µM [falling, partial curve, poor fit].

As for `Cc1[nH]c(-c2ccccn2)nc(=S)c1Cl`, the cell number change is -25.9%. In the case of `CCOC(=O)c1cc2c(N)c(C(=O)c3ccc(Br)cc3)sc2[nH]c1=O`, the cell number change amounted to 0.955%. Besides, the concentration at half-maximal activity (AC50) under setting [1] is 6.51 µM [falling, single point]. With `COc1ccc(/C=C(/NC(=O)c2ccccc2)C(=O)N2CCCCC2)cc1OC`, the cell number change was -53.7%. In addition, the AC50 under setting [2] was 16.4 µM [falling, partial curve, poor fit]. In addition, under setting [1], the AC50 was 11.6 µM [rising, single point].

Regarding `O=C(NCCS(=O)(=O)N1CCN(c2cccc(Cl)c2)CC1)c1ccc2c(c1)OCO2`, the cell number change is -22.5%. For the same compound, the concentration at half-maximal activity (AC50) under setting [1] is 0.184 µM [falling, full curve, poor fit]. Turning to `Cc1cc(C)nc(/N=C2\NC(=O)CC(C(=O)O)N2c2ccc(Oc3ccccc3)cc2)n1` (configuration not stated), the cell number change was 2.49%. Under setting [1], the AC50 was 14.6 µM [rising, single point]. For `CCOC(=S)SCC(=O)Nc1nc(C)c(C)s1`, the cell number change is -23.9%. The AC50 under setting [1] is 23.1 µM [falling, partial curve]. With `O=c1oc2ccccc2c(NC2CCCCC2)c1NS(=O)(=O)c1ccc(F)c(Cl)c1`, the cell number change was -20.4%. In addition, the AC50 under setting [2] is 4.11 µM [falling, full curve, poor fit]. For the compound `O=C(NCC1(N2CCOCC2)CCCCC1)c1ccc(S(=O)(=O)Nc2ccccc2F)cc1`, the cell number change was -45.1%. Also, under setting [2], the AC50 is 1.16 µM [falling, full curve]. Besides, under setting [1], the AC50 was 0.731 µM [falling, full curve]. With `Cc1cccc(CSCCNC(=S)Nc2ccccc2)c1`, the cell number change was found to be 1.47%. Also, the AC50 under setting [1] is 16.4 µM [rising, single point]. On to `O=C1CC(c2ccccc2)CC(O)=C1C=NCc1ccncc1` (configuration not stated), for which the cell number change is -36.8%. In addition, the AC50 under setting [2] was 29.1 µM [falling, single point]. The AC50 under setting [1] was 18.4 µM [falling, single point]. `S=c1[nH]nc(-c2cc(-c3ccccc3)n[nH]2)n1/N=C/c1ccc(Cl)c(Cl)c1`: the cell number change is -48.6%. Under setting [2], the AC50 was 29.1 µM [falling, partial curve]. In addition, the AC50 under setting [1] was 20.6 µM [falling, single point].

As to `Cc1ccc(S(=O)(=O)N(CC(=O)O)c2ccc(Cl)c(C(F)(F)F)c2)cc1`, the cell number change is -39.5%. Moreover, under setting [2], the AC50 was 29.1 µM [falling, single point]. Further, the AC50 under setting [1] is 29.1 µM [falling, single point].

In the case of `COC(=O)c1cccc(OCC(O)Cn2cnc3cc(C)c(C)cc32)c1` (configuration not stated), the cell number change is -19.5%. On the same count and under the same terms, then `O=C(Nc1sc2c(c1C(=O)O)CCCCC2)c1cccnc1`, with 5.26%.

For `Cc1c(Cl)cccc1-n1nnnc1-c1cccs1`, under setting [1], the AC50 is 0.461 µM [rising, full curve]. Consider `CCOC(=O)C1CCCN(C(=O)c2cn(CC)c(=O)c3cc(OC)c(OC)cc23)C1` (configuration not stated), for which the cell number change was -6.02%. As for `Cc1ccc2c(c1)N(CC(=O)NCc1cccs1)C(=O)CO2`, the cell number change is 29.1%. The AC50 under setting [1] was 18.4 µM [rising, single point].

`COc1ccc(-n2nc3c(N4CCC(C(=O)NCc5ccccc5)CC4)nnc(C)c3c2C)cc1`: the cell number change worked out at 23.9%. Besides, the AC50 under setting [1] is 0.58 µM [rising, single point].

As to `O=C(Nc1nc2c(Cl)cccc2s1)c1ccc([N+](=O)[O-])o1`, the AC50 under setting [1] was 4.11 µM [falling, full curve]. As to `CCN1CCCC1CNC(=O)C1c2cc(OC)c(OC)cc2C(=O)N(C)C1c1cccnc1` (configuration not stated), the cell number change is -12.7%. As to `O=C(CCN1C(=O)/C(=C\c2cccc(Br)c2)SC1=S)N1CCOCC1`, the cell number change was determined as 29.1%. In addition, under setting [1], the AC50 is 32.6 µM [rising, single point]. As for `CCCCCCSc1cccc(-c2nc3cc(C)ccn3c2NCc2ccccc2)c1`, the cell number change was -2.4%. For `O=C(c1cc(COc2ccc(F)cc2Cl)on1)N(CCO)Cc1cccs1`, the cell number change was -2.27%. The concentration at half-maximal activity (AC50) under setting [1] is 18.4 µM [rising, partial curve]. For `CCOc1ccc(S(=O)(=O)Nc2nc3ccccc3nc2Cl)cc1`, the cell number change was -6.38%. As for `O=C(NNC(=O)c1ccncc1)Nc1cccc([N+](=O)[O-])c1`, the cell number change was -8.3%. Regarding `COc1ccc(NC(=O)c2cc([N+](=O)[O-])ccc2N2CCN(C)CC2)cc1`, the cell number change was -9.55%. The half-maximal activity concentration (AC50) under setting [2] is 0.00461 µM [falling, full curve, poor fit]. Turning to `CC(=O)NC(c1ccco1)c1cc(F)c2cccnc2c1O` (configuration not stated), the cell number change was -0.225%. Further, the concentration at half-maximal activity (AC50) under setting [1] was 14.6 µM [falling, partial curve].

In the case of `Cc1cc(C)cc(NC(=S)NCc2ccc3[nH]c4c(c3c2)CCCC4)c1`, the cell number change is -48.8%. Moreover, the AC50 under setting [2] is 18.4 µM [falling, partial curve, poor fit]. Moreover, under setting [1], the AC50 was 0.326 µM [rising, partial curve, poor fit]. Regarding `COc1ccc(CCN(C)C(=O)c2ccc(C)c(S(=O)(=O)N3CCCCC3)c2)cc1OC`, the cell number change came out at 8.21%. The AC50 under setting [1] is 29.1 µM [falling, single point]. `O=C(Cn1cnc2scc(-c3ccccc3)c2c1=O)N1CCOCC1`: the cell number change was -14.2%. Also, under setting [2], the AC50 is 0.326 µM [rising, full curve, poor fit]. Also, the half-maximal activity concentration (AC50) under setting [1] was 0.82 µM [rising, partial curve]. Regarding `O=C(CN1CCCC1)Nc1ccccc1Cl`, the cell number change is -106%. Further, the AC50 under setting [2] is 20.6 µM [falling, partial curve, poor fit].

In the case of `O=C(CN1CCCC1)N1c2ccccc2Sc2ccc(Cl)cc21`, the cell number change was -19.3%. The AC50 under setting [1] was 0.146 µM [rising, full curve, poor fit]. Consider `Cc1cccc(N(CC(=O)NC2CCCC2)C(=O)CCC(=O)Nc2ccccn2)c1`, for which the cell number change was 10.5%. Under setting [1], the AC50 was 29.1 µM [falling, single point].

With `O=C(NCc1cccnc1)C12CC3CC(CC(Cl)(C3)C1)C2`, the cell number change was 17.8%. Regarding `CS(=O)(=O)c1ccc2nc(NC(=O)c3ccccc3Cl)sc2c1`, the cell number change is 2.91%. Regarding `O=C(CN1C(=O)NC2(CCOc3ccccc32)C1=O)c1ccc(F)c(F)c1` (configuration not stated), the cell number change worked out at 44.1%. In addition, under setting [2], the AC50 is 29.1 µM [rising, single point]. For the compound `CC1=C(C(=O)Nc2ccccc2)C2(CCCCC2)C(C#N)=C(S)N1`, the cell number change worked out at 33.9%. Moreover, the AC50 under setting [2] is 18.4 µM [rising, single point].

With `O=C(Nc1cccnc1Cl)c1cccnc1Cl`, the cell number change worked out at 70.9%. Also, under setting [2], the AC50 was 29.1 µM [rising, single point]. As for `CCC(=O)Nc1ccccc1Nc1cc(C#N)c(C#N)cc1[N+](=O)[O-]`, the cell number change was -20.5%.

On to `COc1ccc(C(=O)c2c(C(F)(F)F)oc3c2C(=O)c2ccccc2C3=O)cc1`, for which the cell number change was -80.5%. Under setting [2], the AC50 was 16.4 µM [falling, partial curve]. For the same compound, the AC50 under setting [1] was 29.1 µM [falling, single point].

On to `Fc1ccc2[nH]c3c(N4CCc5ccccc5C4)ncnc3c2c1`, for which the cell number change is -68.2%. Further, the AC50 under setting [2] was 6.51 µM [falling, partial curve]. Moreover, under setting [1], the AC50 was 6.51 µM [falling, partial curve]. Take `Cc1sc2nc(COC(=O)c3cccc(S(=O)(=O)N(C)c4ccccc4)c3)[nH]c(=O)c2c1C`: the AC50 under setting [2] was 6.51 µM [falling, single point] and the concentration at half-maximal activity (AC50) under setting [1] is 4.11 µM [falling, single point].

In the case of `CCC(=O)c1ccc(OCc2ccc(C#N)cc2)cc1`, the cell number change amounted to 6.31%. Also, under setting [2], the AC50 is 1.03 µM [rising, single point]. On to `COc1cccc(NC(=S)NC(=O)/C=C/c2ccco2)c1`, for which the cell number change was -3.94%. Under setting [1], the AC50 is 0.58 µM [rising, single point]. On to `CC1CC(C)(C)NC(=S)N1CCCC(=O)NCc1ccccc1` (configuration not stated), for which the AC50 under setting [2] is 5.8 µM [falling, single point].

For the compound `COc1ccc(NC(=O)CCCN2C(=O)/C(=C\c3ccco3)SC2=S)cc1`, the cell number change was -24.5%. Moreover, the AC50 under setting [1] was 16.4 µM [falling, single point].

By AC50 is commonly meant the midpoint of the concentration-response curve, whichever way the signal moves. High values mean weaker potency, low ones greater potency.
